From the supplement of paper PMC10849652
This is one part of the list.

The chains behind the UniProt entries cited, without tags or fusion partners. Where a name states a change or a piece, a line headed by the entry shows the natural chain unless it says otherwise.
UniProt Q99963: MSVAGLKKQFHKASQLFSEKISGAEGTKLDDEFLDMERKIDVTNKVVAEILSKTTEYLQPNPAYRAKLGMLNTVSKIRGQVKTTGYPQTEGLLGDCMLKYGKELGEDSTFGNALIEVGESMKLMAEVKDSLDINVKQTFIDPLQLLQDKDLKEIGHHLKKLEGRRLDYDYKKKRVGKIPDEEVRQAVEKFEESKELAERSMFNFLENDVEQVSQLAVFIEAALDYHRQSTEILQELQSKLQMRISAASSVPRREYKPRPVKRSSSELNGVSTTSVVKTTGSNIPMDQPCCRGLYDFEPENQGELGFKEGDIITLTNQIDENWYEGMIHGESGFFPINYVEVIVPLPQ
UniProt O75368: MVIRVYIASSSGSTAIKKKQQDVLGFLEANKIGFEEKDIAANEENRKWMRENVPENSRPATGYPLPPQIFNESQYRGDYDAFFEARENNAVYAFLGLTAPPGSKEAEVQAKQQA
UniProt Q9Y3L3: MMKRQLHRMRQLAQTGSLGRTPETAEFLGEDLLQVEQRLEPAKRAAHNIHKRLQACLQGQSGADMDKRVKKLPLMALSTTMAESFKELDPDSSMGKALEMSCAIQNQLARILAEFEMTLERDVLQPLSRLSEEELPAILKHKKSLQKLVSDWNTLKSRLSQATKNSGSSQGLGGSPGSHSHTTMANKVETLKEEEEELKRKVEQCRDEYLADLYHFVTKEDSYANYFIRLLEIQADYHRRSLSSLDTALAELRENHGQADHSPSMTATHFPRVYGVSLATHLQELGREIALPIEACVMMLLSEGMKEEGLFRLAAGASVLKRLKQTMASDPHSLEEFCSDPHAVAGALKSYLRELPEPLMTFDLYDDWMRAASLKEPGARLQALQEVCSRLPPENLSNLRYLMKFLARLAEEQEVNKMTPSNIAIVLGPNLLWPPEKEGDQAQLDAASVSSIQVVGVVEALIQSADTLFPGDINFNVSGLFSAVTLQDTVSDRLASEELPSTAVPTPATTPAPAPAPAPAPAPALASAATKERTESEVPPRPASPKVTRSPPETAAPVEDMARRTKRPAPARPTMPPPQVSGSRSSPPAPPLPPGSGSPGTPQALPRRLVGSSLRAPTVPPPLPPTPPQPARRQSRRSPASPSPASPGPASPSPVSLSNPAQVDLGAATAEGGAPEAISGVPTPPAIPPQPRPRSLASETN
UniProt P55011: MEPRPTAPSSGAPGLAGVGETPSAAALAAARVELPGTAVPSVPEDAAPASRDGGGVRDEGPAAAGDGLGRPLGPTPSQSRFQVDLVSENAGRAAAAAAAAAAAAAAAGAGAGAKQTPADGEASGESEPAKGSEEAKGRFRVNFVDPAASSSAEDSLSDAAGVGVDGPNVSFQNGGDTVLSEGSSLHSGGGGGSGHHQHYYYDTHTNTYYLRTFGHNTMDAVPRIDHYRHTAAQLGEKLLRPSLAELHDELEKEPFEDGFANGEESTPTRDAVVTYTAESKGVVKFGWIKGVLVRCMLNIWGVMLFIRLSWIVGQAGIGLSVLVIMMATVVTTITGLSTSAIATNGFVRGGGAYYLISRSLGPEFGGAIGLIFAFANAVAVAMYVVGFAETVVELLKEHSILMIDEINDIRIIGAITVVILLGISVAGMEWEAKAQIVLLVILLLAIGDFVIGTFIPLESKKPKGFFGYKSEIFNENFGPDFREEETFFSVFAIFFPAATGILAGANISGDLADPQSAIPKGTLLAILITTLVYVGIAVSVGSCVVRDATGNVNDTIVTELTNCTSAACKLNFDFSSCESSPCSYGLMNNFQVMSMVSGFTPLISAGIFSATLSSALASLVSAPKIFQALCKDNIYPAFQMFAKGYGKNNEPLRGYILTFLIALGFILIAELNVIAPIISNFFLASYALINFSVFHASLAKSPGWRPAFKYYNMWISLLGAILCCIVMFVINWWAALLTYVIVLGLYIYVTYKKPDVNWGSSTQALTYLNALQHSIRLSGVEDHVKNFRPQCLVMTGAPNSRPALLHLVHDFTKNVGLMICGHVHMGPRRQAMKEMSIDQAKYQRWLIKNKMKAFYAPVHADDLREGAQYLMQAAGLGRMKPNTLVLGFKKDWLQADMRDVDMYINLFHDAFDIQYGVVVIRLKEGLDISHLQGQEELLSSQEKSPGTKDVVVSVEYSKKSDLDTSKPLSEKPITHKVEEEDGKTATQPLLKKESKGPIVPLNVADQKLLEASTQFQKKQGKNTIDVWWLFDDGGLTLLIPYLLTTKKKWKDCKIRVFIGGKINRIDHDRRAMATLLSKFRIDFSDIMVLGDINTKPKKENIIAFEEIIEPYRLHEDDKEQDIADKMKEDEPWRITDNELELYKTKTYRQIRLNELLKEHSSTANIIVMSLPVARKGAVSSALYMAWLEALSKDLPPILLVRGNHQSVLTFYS
UniProt Q9NP31, whole entry, looked up: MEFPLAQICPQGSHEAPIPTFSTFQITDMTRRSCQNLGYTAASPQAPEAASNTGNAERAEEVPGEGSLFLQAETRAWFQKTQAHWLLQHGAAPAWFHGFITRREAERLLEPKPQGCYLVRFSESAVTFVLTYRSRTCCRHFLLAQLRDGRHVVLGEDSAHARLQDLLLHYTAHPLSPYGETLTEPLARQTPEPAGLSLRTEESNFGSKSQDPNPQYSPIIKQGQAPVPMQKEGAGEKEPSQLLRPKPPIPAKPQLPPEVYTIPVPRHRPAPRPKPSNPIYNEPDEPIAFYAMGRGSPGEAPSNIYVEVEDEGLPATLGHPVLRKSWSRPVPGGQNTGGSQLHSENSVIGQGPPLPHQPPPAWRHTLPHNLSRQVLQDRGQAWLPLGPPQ
UniProt Q9UHW9: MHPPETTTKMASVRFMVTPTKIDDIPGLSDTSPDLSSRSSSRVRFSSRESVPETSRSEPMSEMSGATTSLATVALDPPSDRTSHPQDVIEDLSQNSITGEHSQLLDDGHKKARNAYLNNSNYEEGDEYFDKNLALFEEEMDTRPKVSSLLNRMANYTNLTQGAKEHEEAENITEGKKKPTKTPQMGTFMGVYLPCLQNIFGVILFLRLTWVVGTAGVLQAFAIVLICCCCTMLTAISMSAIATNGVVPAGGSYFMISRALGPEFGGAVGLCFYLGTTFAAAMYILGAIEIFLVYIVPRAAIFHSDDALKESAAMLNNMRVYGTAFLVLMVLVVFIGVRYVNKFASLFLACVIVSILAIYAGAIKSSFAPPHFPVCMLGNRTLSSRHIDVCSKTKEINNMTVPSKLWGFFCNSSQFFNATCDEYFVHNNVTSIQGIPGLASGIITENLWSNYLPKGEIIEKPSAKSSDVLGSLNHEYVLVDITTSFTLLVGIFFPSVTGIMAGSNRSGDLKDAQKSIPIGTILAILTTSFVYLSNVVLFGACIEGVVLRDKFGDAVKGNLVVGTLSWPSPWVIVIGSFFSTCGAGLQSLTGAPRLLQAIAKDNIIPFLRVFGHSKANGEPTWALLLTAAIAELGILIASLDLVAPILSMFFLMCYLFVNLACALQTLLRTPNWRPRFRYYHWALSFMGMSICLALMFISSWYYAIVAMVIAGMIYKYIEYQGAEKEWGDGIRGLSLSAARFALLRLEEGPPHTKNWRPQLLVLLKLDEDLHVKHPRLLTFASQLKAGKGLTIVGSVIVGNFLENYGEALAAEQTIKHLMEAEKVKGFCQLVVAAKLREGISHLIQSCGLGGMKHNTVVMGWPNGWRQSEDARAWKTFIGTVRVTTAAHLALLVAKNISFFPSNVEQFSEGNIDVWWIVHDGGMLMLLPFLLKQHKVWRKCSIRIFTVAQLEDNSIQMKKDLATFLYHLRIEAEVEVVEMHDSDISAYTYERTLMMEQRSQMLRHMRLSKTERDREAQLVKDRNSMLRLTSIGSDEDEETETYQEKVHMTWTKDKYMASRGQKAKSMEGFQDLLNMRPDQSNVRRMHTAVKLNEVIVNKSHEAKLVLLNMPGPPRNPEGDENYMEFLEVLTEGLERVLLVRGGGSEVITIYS
UniProt Q9NRX5: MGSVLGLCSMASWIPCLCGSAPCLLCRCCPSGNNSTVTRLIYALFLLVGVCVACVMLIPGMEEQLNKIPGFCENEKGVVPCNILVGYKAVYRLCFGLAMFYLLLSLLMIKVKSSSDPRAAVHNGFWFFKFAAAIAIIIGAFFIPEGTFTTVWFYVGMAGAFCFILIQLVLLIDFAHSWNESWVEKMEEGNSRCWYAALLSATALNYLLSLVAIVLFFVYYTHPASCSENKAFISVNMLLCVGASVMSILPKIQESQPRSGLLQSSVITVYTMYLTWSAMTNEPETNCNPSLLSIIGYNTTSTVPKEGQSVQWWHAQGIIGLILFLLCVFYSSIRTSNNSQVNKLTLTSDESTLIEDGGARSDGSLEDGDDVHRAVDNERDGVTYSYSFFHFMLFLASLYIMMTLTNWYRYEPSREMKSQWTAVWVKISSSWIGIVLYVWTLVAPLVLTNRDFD
UniProt Q96JX3: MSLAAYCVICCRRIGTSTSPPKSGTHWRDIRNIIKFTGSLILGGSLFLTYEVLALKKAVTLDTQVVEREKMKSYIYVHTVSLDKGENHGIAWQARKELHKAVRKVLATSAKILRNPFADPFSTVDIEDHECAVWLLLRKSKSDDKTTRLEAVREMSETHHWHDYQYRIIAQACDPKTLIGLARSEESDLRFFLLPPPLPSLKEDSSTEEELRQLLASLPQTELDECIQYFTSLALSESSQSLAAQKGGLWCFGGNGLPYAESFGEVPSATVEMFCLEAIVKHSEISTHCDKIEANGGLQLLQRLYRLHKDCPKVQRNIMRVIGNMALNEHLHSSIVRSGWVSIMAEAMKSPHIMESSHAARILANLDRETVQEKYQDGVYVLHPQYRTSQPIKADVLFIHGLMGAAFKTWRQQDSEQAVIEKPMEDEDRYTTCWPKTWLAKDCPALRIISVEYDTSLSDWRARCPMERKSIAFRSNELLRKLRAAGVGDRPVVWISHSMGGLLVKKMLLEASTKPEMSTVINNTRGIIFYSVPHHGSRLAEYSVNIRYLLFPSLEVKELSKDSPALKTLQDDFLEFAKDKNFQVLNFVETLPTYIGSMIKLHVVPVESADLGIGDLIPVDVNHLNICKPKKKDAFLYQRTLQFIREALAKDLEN
UniProt Q96HU1: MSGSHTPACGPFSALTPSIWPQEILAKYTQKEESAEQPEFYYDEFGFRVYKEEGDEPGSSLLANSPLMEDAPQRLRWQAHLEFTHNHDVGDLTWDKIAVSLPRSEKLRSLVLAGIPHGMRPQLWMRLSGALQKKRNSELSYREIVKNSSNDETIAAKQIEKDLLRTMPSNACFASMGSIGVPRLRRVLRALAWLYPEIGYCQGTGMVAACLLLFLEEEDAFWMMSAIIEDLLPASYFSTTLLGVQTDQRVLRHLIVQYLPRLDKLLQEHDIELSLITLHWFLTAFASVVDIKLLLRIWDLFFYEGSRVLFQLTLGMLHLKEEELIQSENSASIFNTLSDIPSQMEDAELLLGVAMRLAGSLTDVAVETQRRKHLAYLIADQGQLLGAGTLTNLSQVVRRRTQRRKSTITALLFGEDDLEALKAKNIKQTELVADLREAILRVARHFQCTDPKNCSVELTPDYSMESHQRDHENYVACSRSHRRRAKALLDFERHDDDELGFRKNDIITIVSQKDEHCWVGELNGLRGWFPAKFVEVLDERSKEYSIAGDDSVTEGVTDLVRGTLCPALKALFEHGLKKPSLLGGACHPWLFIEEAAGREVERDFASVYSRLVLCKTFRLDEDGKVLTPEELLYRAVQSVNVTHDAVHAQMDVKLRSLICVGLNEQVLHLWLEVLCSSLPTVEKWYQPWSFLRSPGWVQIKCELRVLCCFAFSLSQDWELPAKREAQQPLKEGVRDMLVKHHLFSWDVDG
UniProt Q9NP50: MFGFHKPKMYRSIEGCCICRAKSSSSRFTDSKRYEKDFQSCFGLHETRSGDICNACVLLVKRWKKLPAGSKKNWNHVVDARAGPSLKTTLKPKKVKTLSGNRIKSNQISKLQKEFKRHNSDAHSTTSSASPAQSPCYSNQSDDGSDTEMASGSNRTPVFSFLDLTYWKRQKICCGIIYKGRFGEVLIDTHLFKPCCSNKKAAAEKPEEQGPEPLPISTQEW
UniProt Q5FBB7: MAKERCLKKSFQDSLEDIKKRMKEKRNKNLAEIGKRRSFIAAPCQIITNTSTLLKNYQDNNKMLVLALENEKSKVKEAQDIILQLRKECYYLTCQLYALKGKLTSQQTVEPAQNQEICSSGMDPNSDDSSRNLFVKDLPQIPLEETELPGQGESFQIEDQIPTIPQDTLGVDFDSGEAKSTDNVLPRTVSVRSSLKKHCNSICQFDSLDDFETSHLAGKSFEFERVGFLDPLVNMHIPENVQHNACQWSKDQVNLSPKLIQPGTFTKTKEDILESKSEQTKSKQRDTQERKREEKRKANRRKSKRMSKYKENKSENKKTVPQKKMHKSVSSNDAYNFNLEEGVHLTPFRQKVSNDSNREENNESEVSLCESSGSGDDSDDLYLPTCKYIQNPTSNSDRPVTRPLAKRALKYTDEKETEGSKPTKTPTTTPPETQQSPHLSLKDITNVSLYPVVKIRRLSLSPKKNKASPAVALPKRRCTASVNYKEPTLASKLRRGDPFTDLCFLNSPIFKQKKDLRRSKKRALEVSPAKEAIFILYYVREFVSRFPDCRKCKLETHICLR

Experiments:
Test in all cases: log2 fold change, soluble protein after heating vs DMSO (PISA); higher = thermal stabilisation; K562 lysate, 10 uM; active = over 0.2 and 3.5 SD of the protein, either way, in both replicates (recomputed)
nilotinib = compound: Cc1cn(-c2cc(NC(=O)c3ccc(C)c(Nc4nccc(-c5cccnc5)n4)c3)cc(C(F)(F)F)c2)cn1 [nilotinib]
Procedure, shortened: (§1)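 Quantification was by TMTpro 16plex LC-MS/MS with equalised channel sums, applied to the supernatant after 21,000xg for 90 min. Samples were crude K562 extract at 1 mg/mL protein in PBS pH 7.4 with 1 mM MgCl2, treated with 10 μM compound for 30 min, heated for 3 min across 48°C-58°C, pooled and brought to 0.5% NP-40 at 4°C. Values are log-two fold changes in thermal stability relative to solvent controls, from duplicates.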

[1] = compound: Cc1nc(Nc2n[nH]c3c2CN(C(=O)N[C@H](CN(C)C)c2ccccc2)C3(C)C)c2sccc2n1
Procedure, shortened: as §1

dasatinib = compound: Cc1nc(Nc2ncc(C(=O)Nc3c(C)cccc3Cl)s2)cc(N2CCN(CCO)CC2)n1 [dasatinib]
Procedure, shortened: as §1

[2] = compound: Cc1ncc(-c2ccnc(Nc3ccc(S(C)(=O)=O)cc3)n2)n1C(C)C
Procedure, shortened: as §1

[3] = compound: Cn1cc(-c2ccc3c(c2)CCN3C(=O)Cc2cccc(C(F)(F)F)c2)c2c(N)ncnc21
Procedure, shortened: as §1

quisinostat = compound: Cn1cc(CNCC2CCN(c3ncc(C(=O)NO)cn3)CC2)c2ccccc21 [quisinostat]
Procedure, shortened: as §1

tipifarnib = compound: Cn1cncc1[C@@](N)(c1ccc(Cl)cc1)c1ccc2c(c1)c(-c1cccc(Cl)c1)cc(=O)n2C [tipifarnib]
Procedure, shortened: as §1

[4] = compound: NC(=O)Nc1cc(-c2cccc(F)c2)sc1C(=O)N[C@H]1CCCNC1
Procedure, shortened: as §1

[5] = compound: NC(=O)c1cnc(N[C@@H]2CCCC[C@@H]2N)nc1Nc1cccc(-n2nccn2)c1
Procedure, shortened: as §1

[6] = compound: NC1(c2ccc(-c3nc4ccn5c(=O)[nH]nc5c4cc3-c3ccccc3)cc2)CCC1
Procedure, shortened: as §1

Measured: log2 fold change

SH3GL3 isoform 3 (UniProt Q99963)
inactive: nilotinib -0.075 | [1] -0.113 | dasatinib -0.067 | [2] 0.096 | [3] -0.007 | quisinostat -0.033 | tipifarnib 0.029 | [4] 0.075 | [5] 0.024 | [6] -0.011

SH3BGRL (UniProt O75368)
inactive: nilotinib 0.035 | [1] 0.014 | dasatinib 0.002 | [2] 0.027 | [3] -0.02 | quisinostat 0 | tipifarnib 0.006 | [4] -0.026 | [5] -0.036 | [6] 0.006

SH3BP1 (UniProt Q9Y3L3)
inactive: nilotinib -0.003 | [1] -0.024 | dasatinib -0.008 | [2] 0.033 | [3] 0.026 | quisinostat 0.024 | tipifarnib 0.035 | [4] -0.002 | [5] 0.019 | [6] 0.016

2 successive records out of the list so far, quoted:
SH3GL3 isoform 3 (UniProt Q99963)
inactive: nilotinib -0.075 | [1] -0.113 | dasatinib -0.067 | [2] 0.096 | [3] -0.007 | quisinostat -0.033 | tipifarnib 0.029 | [4] 0.075 | [5] 0.024 | [6] -0.011

SH3BGRL (UniProt O75368)
inactive: nilotinib 0.035 | [1] 0.014 | dasatinib 0.002 | [2] 0.027 | [3] -0.02 | quisinostat 0 | tipifarnib 0.006 | [4] -0.026 | [5] -0.036 | [6] 0.006

Following part

SLC12A2 (UniProt P55011)
inactive: nilotinib -0.04 | [1] 0.004 | dasatinib 0.008 | [2] -0.007 | [3] 0.005 | quisinostat 0.016 | tipifarnib -0.04 | [4] 0.048 | [5] 0.008 | [6] -0.01

SKP1 (UniProt P63208)
inactive: nilotinib 0 | [1] 0.021 | dasatinib 0.041 | [2] 0.022 | [3] 0.003 | quisinostat -0.024 | tipifarnib -0.005 | [4] -0.017 | [5] -0.03 | [6] -0.002

SH2D2A isoform 2 (UniProt Q9NP31)
inactive: nilotinib -0.151 | [1] -0.029 | dasatinib -0.058 | [2] 0.018 | [3] -0.079 | quisinostat 0.111 | tipifarnib -0.051 | [4] 0.015 | [5] 0.051 | [6] 0.013

SHKBP1 (UniProt Q8TBC3)
inactive: nilotinib 0.055 | [1] 0.098 | dasatinib 0.117 | [2] -0.072 | [3] -0.011 | quisinostat -0.039 | tipifarnib 0.088 | [4] -0.016 | [5] 0.007 | [6] -0.096

SFN (UniProt P31947)
inactive: nilotinib -0.036 | [1] -0.007 | dasatinib 0.088 | [2] -0.007 | [3] 0.008 | quisinostat 0.077 | tipifarnib 0.052 | [4] -0.048 | [5] -0.023 | [6] 0.035

SLC12A6 (UniProt Q9UHW9)
inactive: nilotinib -0.004 | [1] 0 | dasatinib 0.024 | [2] -0.066 | [3] -0.003 | quisinostat -0.013 | tipifarnib 0.012 | [4] -0.001 | [5] -0.022 | [6] 0.026

SERINC3 (UniProt Q13530)
inactive: nilotinib 0.022 | [1] 0.023 | dasatinib 0.026 | [2] -0.006 | [3] 0.009 | quisinostat -0.131 | tipifarnib -0.036 | [4] 0.04 | [5] 0.008 | [6] -0.083

SH3GL1 (UniProt Q99961)
inactive: nilotinib -0.01 | [1] 0.029 | dasatinib -0.024 | [2] 0.01 | [3] -0.009 | quisinostat -0.046 | tipifarnib 0.015 | [4] 0.004 | [5] 0.006 | [6] 0.033

SIN3A (UniProt Q96ST3)
inactive: nilotinib 0.039 | [1] -0.006 | dasatinib -0.017 | [2] -0.038 | [3] -0.007 | quisinostat -0.034 | tipifarnib -0.013 | [4] 0.054 | [5] -0.008 | [6] -0.004

SFPQ (UniProt P23246)
inactive: nilotinib -0.029 | [1] 0.012 | dasatinib -0.018 | [2] -0.004 | [3] 0.018 | quisinostat 0.037 | tipifarnib 0.042 | [4] -0.009 | [5] 0.005 | [6] 0.009

SLBP (UniProt Q14493)
inactive: nilotinib -0.037 | [1] 0.035 | dasatinib -0.007 | [2] -0.058 | [3] 0.038 | quisinostat -0.09 | tipifarnib 0.015 | [4] 0.016 | [5] -0.054 | [6] 0.1

SHCBP1 (UniProt Q8NEM2)
inactive: nilotinib -0.051 | [1] -0.024 | dasatinib -0.071 | [2] -0.043 | [3] 0.026 | quisinostat -0.019 | tipifarnib -0.035 | [4] -0.009 | [5] -0.019 | [6] -0.016

SLC16A1 (UniProt P53985)
inactive: nilotinib 0.044 | [1] 0.043 | dasatinib 0.137 | [2] -0.009 | [3] -0.005 | quisinostat -0.064 | tipifarnib 0.005 | [4] 0.012 | [5] -0.028 | [6] -0.003

SLC12A4 (UniProt Q9UP95)
inactive: nilotinib -0.003 | [1] -0.024 | dasatinib 0.024 | [2] 0.01 | [3] -0.046 | quisinostat 0.028 | tipifarnib -0.056 | [4] 0.006 | [5] 0.093 | [6] 0.029

SKA2 (UniProt Q8WVK7)
inactive: nilotinib -0.062 | [1] 0.015 | dasatinib 0.005 | [2] 0.005 | [3] 0.026 | quisinostat 0.122 | tipifarnib -0.052 | [4] -0.022 | [5] 0.004 | [6] -0.023

SERINC1 (UniProt Q9NRX5)
inactive: nilotinib 0.068 | [1] -0.019 | dasatinib 0.004 | [2] -0.009 | [3] -0.069 | quisinostat -0.125 | tipifarnib -0.126 | [4] -0.013 | [5] -0.024 | [6] 0.019

SHPRH (UniProt Q149N8)
inactive: nilotinib 0.023 | [1] -0.012 | dasatinib -0.03 | [2] -0.077 | [3] 0.062 | quisinostat -0.086 | tipifarnib 0.103 | [4] 0.065 | [5] -0.064 | [6] 0.022

SIGMAR1 (UniProt Q99720)
inactive: nilotinib -0.052 | [1] 0.042 | dasatinib 0.047 | [2] 0.001 | [3] -0.012 | tipifarnib -0.059 | [4] 0.01 | [5] 0.016 | [6] 0.053

SETX isoform 4 (UniProt Q7Z333)
inactive: nilotinib -0.025 | [1] -0.031 | dasatinib -0.05 | [2] 0.007 | [3] -0.004 | quisinostat -0.034 | tipifarnib 0.037 | [4] 0.028 | [5] 0.037 | [6] -0.025

SERAC1 (UniProt Q96JX3)
inactive: nilotinib 0.085 | [1] -0.133 | dasatinib -0.152 | [2] -0.029 | [3] 0.052 | tipifarnib 0.033 | [6] -0.023

SGSM3 isoform 2 (UniProt Q96HU1)
inactive: nilotinib -0.038 | [1] 0.113 | [2] -0.026 | quisinostat 0.045 | tipifarnib 0.015 | [4] 0.013 | [5] -0.056 | [6] 0.065

SINHCAF (UniProt Q9NP50)
inactive: nilotinib -0.016 | [1] 0 | dasatinib -0.161 | [2] -0.121 | [3] 0.556 | quisinostat -0.044 | tipifarnib -0.089 | [4] 0.122 | [6] 0.209

SF1 isoform 6 (UniProt Q15637)
inactive: nilotinib 0.086 | [1] -0.012 | dasatinib -0.031 | [2] -0.008 | [3] -0.135 | tipifarnib -0.033 | [5] 0.027 | [6] -0.046

SGO1 (UniProt Q5FBB7)
inactive: nilotinib 0.156 | [1] -0.041 | dasatinib -0.048 | [2] -0.05 | [3] 0.096 | quisinostat -0.014 | tipifarnib -0.064 | [4] 0.037 | [5] 0.024 | [6] 0.061

SF3B6 (UniProt Q9Y3B4)
inactive: nilotinib 0.045 | [1] 0.013 | dasatinib -0.036 | [2] -0.028 | [3] -0.038 | quisinostat 0.016 | tipifarnib 0.021 | [4] 0 | [5] -0.054 | [6] -0.03
